# Results deposited as PubChem BioAssay AID602196 (INSERM, 2012).
# Aim: 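Genes whose knock-down alters cisplatin killing of lung cancer cells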
# Cells: human A549 lung cancer cells
# Reagents: siRNA pair against human genes
# Time to read-out: 48 h transfection before cisplatin; time from cisplatin to read-out not stated
# Conditions: cisplatin at a dose killing half of control-siRNA cells; exact dose and duration not given
# Detection: 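Cisplatin cell death as a shift from the 50% death seen with control siRNA; siRNAs toxic or growth-blocking alone scored 0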
# Reading the numbers: two-siRNA summed score (-2 to +2): higher = both siRNAs protect from cisplatin killing; -2 means both sensitise; mean protection from cisplatin (shift in death) and protection from cisplatin (shift in death), siRNA C and protection from cisplatin (shift in death), siRNA D: higher = protection from cisplatin killing
# Hit rule: 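siRNAs harmful alone (LDH or WST-1) get 0; others get +1 for less and -1 for more cisplatin killing; genes are active when the two siRNAs give the same sign, summing to ±2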
# Meaning of the calls: active = both siRNAs shift cisplatin killing the same way; inactive = no consistent shift, or siRNA harmful alone
# Shown is one part, drawn at random, of about 23,000 reagents tested. Over the whole deposit, 455 (2%) were called active. 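Active includes both protection and sensitisation; some change values fall well beyond the stated -50 to +50 range.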 A number with no mark means an inactive call. Not given: the amount of reagent.
gene,two-siRNA summed score (-2 to +2),mean protection from cisplatin (shift in death) (%),"protection from cisplatin (shift in death), siRNA C (%)","protection from cisplatin (shift in death), siRNA D (%)"
IZUMO4,-1,-11.5,-18.2,-4.9
FAM81A,0,4.2,6.7,1.6
CRYBB1,0,-6.3,-15.8,3.1
RAD9A,0,-3.8,2,-9.7
SIX5,0,2,7,-3
H1-7,0,16.1,39.1,-7
RAD9B,0,1,-7.3,9.3
GZMK,-1,-21,-27.3,-14.7
ARSK,1,4,15.7,-7.7
TBPL1,1,16.2,-9.7,42.1
FLNB,-1,-5,-17,7.1
ZC4H2,0,4.1,16.2,-8.1
EVL,0,-14.4,1.7,-30.4
ZNF341,0,2.1,3,1.2
SMN2,0,8.2,15.8,0.7
GPX8,0,8.3,-4.5,21
ZDHHC8,0,3.6,6.4,0.7
PSG2,-1,-2.9,-16.4,10.6
LINC01600,0,4,-3.1,11.1
ACTA1,0,11.1,14.1,8.1
LOC441496,0,9.2,3.8,14.5
ZNF599,0,22.6,37.6,7.5
USP18,-1,-11.7,14.5,-37.8
ZNF75D,1,18.5,34,3.1
CRNN,0,7.9,26.2,-10.4
NPEPPS,-2 (active),-20.2,-20.6,-19.7

Entries listed so far whose gene name begins with Z or z:
gene,two-siRNA summed score (-2 to +2),mean protection from cisplatin (shift in death) (%),"protection from cisplatin (shift in death), siRNA C (%)","protection from cisplatin (shift in death), siRNA D (%)"
ZC4H2,0,4.1,16.2,-8.1
ZNF341,0,2.1,3,1.2
ZDHHC8,0,3.6,6.4,0.7
ZNF599,0,22.6,37.6,7.5
ZNF75D,1,18.5,34,3.1

Further entries:
gene,two-siRNA summed score (-2 to +2),mean protection from cisplatin (shift in death) (%),"protection from cisplatin (shift in death), siRNA C (%)","protection from cisplatin (shift in death), siRNA D (%)"
DLGAP3,0,-7.2,1.7,-16.2
ZSCAN9,1,-0.4,-14.3,13.6
EIF2D,1,10.3,25.5,-4.8
NIM1K,-1,-10.8,-2.9,-18.6
SP3,0,3,7.3,-1.3
SEMA3G,0,1.1,8.3,-6.1
LOC389202,0,3.4,8.3,-1.6
RAI14,0,2,2.4,1.7
SLC36A1,1,12.7,11,14.5
LOC442102,1,11.5,5.7,17.3
PFKP,0,-2.7,-0.2,-5.3
LOC148766,0,3.8,4,3.7
SEC62,1,17.5,20.7,14.3
